Measurements published in paper PMC9482348.
Results are given in words; binding and its absence hold for the method and conditions named. Binding seen in cells or lysates may run through a third protein. Some entries that bind do so weakly or less than the wild type. Where a sequence is shown, tags or fusion partners need not be part of it.

By UniProt entry, the sequences of proteins in these tests, tags left out.
UniProt P62258: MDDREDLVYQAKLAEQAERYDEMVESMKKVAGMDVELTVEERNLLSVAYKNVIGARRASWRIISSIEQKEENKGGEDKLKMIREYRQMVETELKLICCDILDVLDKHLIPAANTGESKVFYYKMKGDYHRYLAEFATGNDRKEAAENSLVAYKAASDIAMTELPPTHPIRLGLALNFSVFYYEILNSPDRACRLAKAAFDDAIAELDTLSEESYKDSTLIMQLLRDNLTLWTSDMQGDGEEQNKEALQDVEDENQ

Key:
[1] = molecular target: T1, HA-tagged iRhom2 wild type (iRhom2^WT), in iRhom1/2 DKO A549 cells (UniProt Q6PJF5); assay: co-IP; anti-HA magnetic beads on cleared Triton X-100 lysates (1% Triton X-100, 150 mM NaCl, 50 mM Tris-HCl pH 7.5, PhosSTOP), at least 2 h at 4°C; iRhom1/2 DKO A549 cells stably expressing HA-iRhom2^WT or iRhom2^pMUT; blots for 14-3-3ε, HA and actin
T1 sequence: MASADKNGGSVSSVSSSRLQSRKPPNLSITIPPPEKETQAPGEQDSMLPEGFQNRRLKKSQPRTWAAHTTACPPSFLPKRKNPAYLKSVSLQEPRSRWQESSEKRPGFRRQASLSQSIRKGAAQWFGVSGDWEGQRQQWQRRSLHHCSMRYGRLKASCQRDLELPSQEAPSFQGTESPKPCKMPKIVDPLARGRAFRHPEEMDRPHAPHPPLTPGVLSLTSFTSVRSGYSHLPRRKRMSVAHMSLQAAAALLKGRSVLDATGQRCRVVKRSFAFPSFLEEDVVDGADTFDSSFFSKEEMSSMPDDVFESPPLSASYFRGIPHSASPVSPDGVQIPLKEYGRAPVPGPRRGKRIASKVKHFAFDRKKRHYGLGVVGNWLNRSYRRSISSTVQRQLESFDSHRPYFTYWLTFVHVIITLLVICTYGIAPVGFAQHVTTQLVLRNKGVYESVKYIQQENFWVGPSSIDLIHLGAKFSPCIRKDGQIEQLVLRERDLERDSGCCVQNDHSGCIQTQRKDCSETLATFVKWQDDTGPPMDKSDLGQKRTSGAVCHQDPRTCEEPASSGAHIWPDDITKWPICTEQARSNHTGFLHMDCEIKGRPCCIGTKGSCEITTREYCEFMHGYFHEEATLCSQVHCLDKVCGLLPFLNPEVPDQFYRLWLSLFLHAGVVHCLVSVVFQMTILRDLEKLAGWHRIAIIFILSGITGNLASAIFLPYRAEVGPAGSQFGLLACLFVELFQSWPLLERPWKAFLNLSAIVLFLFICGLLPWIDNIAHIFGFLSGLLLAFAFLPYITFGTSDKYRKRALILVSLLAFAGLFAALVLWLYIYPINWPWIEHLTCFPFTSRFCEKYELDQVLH

[2] = molecular target: T2, HA-tagged iRhom2 wild type (iRhom2^WT), in iRhom1/2 DKO HEK293T cells (UniProt Q6PJF5); assay: co-IP; anti-HA magnetic beads on cleared Triton X-100 lysates (1% Triton X-100, 150 mM NaCl, 50 mM Tris-HCl pH 7.5, PhosSTOP), at least 2 h at 4°C; iRhom1/2 DKO HEK293T cells with HA-iRhom2^WT, transfected with GFP or GFP-KRAS^G12V, with or without 10 μM U0126 for 2 h; blots for 14-3-3ε, ADAM17, HA and …
T2 sequence: T1 sequence

Row | Substance | binding [1] | binding [2]
1 | 14-3-3 epsilon, endogenous in A549 cells (from UniProt P62258 1-255) | binds | –
2 | 14-3-3 epsilon, endogenous in HEK293T cells (from UniProt P62258 1-255) | – | binds
